# In article PMC7819943, “Rice protein-binding microarrays: a tool to detect cis-acting elements near promoter regions in rice”:
# Protein sequences, listed by entry. Tags and fused reporters are not part of them.
# UniProt Q0JBA9, entry or part of it: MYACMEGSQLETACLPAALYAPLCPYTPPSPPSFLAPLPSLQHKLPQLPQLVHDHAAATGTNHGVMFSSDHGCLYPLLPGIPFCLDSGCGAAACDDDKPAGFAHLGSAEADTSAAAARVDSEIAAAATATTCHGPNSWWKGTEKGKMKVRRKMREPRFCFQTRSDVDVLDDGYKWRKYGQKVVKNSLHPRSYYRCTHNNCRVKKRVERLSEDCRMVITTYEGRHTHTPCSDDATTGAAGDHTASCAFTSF
# The other results are listed elsewhere or left out.
# Target: OsWRKY34 (Oryza sativa, UniProt Q0JBA9 1-250)
# Assay: protein-binding microarray (RPBM); PBS, 2% BSA, 51.3 ng/ul salmon testes DNA, 50 uM zinc acetate, 200 nM TF, 25 C, 1 h; high values mean tight binding
# Details: protein: recombinant; tags: N-terminal polyhistidine and DsRed monomer fusion (pET32a); label: CyDye5-dUTP incorporated in the synthesized complementary strand; 3' TTTTT single-stranded linker to array surface; dsDNA, one strand shown
# How it was run: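 Binding signal is defined as the fluorescence intensity of each feature in arbitrary units, read on an Axon 4000B scanner. Transcription factors with N-terminal polyhistidine and DsRed fusions came from E. coli BL21-CodonPlus and were purified on Ni–NTA. They were incubated at 200 nM for 1 h at 25 °C on a custom Agilent array that had been made double-stranded with Cy5-dUTP, with 50 µM zinc acetate present, and the array was washed.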
row,Sequence,binding signal
1,TTACAGTCGGACTGTGCAATTGTTTTTTTTCTCGTCCACACGGAGTCACCTAGTGCAG,10700 fluorescence intensity (a.u.)
2,CTACACACATAAACTTCTATTTTTTTCATCACATTGTTCTCGGAGTCACCTAGTGCAG,9210 fluorescence intensity (a.u.)
3,ATCTTATTAATTAATTCTTTGTGTTTCATATTATTCTAATCGGAGTCACCTAGTGCAG,10300 fluorescence intensity (a.u.)
4,GCCACTAATTATCTCATCATGTCACCAAGTTAAGTAGGTTCGGAGTCACCTAGTGCAG,8330 fluorescence intensity (a.u.)
5,CAATGGTGTCATATATTATCGGCGGTACTATGTTCTATTTCGGAGTCACCTAGTGCAG,11000 fluorescence intensity (a.u.)
6,ATCGTTTCGCTTAGCTTTTCTTTCTTCTTCGTCGTCTCGGCGGAGTCACCTAGTGCAG,10700 fluorescence intensity (a.u.)
7,ATTGCAGCTCCTGGATTCTACGCCCAGTGCAGACCAACACCGGAGTCACCTAGTGCAG,8240 fluorescence intensity (a.u.)
8,TTGAGCGCAATTTTTTTTTTTTTGTGTGTGTGTTGTTGGTCGGAGTCACCTAGTGCAG,8270 fluorescence intensity (a.u.)
9,GCCTCGCCTTCTTATTCTGGCTCATCTGCAAGCTGCAGCTCGGAGTCACCTAGTGCAG,12400 fluorescence intensity (a.u.)
10,ACTCGCACTTTATATTTCTCCAAATTCCACATTCAAATTTCGGAGTCACCTAGTGCAG,8480 fluorescence intensity (a.u.)
11,ATTTAATTTGTCAGCCACACCATCAGTTCTAAATTATTTTCGGAGTCACCTAGTGCAG,8060 fluorescence intensity (a.u.)
12,GCGCCTTTCTATGCCTCTCTATCACCTTTTGGTCATTCGGCGGAGTCACCTAGTGCAG,8590 fluorescence intensity (a.u.)
13,CTGCTCAGCGAAAGTACGTACCTACGAGTATCACGTTCTCCGGAGTCACCTAGTGCAG,8160 fluorescence intensity (a.u.)
14,TACTGCCATTTTTTCAGTTTTCACACCTACTTCTATTCCTCGGAGTCACCTAGTGCAG,10700 fluorescence intensity (a.u.)
15,GCTTTCCATGATTCCCCGGAGTTAAGTCATTGTCACAAGTCGGAGTCACCTAGTGCAG,10100 fluorescence intensity (a.u.)
16,CCTCACACTCTGGCACACCTTCTTCCTTTTCTTCACTTGCCGGAGTCACCTAGTGCAG,12900 fluorescence intensity (a.u.)
17,ACACAGACGACGCAGCATCAGCAACACACACACACACCGACGGAGTCACCTAGTGCAG,8220 fluorescence intensity (a.u.)
18,AGATCCAATGACGCGACGCCGCAACCGAAATGGATTCATCCGGAGTCACCTAGTGCAG,8360 fluorescence intensity (a.u.)
19,AGTTTTGCTATTATGCCACCGCCGCCACGCTTTTGCTGATCGGAGTCACCTAGTGCAG,9500 fluorescence intensity (a.u.)
20,GTGAGGGCTAGGGTTGGCAACCCCATCTTGGCATATGCTTCGGAGTCACCTAGTGCAG,9170 fluorescence intensity (a.u.)
21,GAAACACCGGAGGGAGGGTGGGCGACGAGGAGGAGGAAAACGGAGTCACCTAGTGCAG,8440 fluorescence intensity (a.u.)

row,Sequence,binding signal
1,AATCCGACCTGCTGGATCCGCACTGTATTTTTTTTCACCTCGGAGTCACCTAGTGCAG,10200 fluorescence intensity (a.u.)
2,CTTTTATTTCCTATCTTGCATTTCCCATCTCCATCCTCCCCGGAGTCACCTAGTGCAG,8090 fluorescence intensity (a.u.)
3,TGCATGTAGCATTAGGGGTTGGTTTGTTTTGAGGCCTATACGGAGTCACCTAGTGCAG,11400 fluorescence intensity (a.u.)
4,GACAATCCCCGATCCGATCGCCGCGCTCCTCTCCTCTACCCGGAGTCACCTAGTGCAG,8280 fluorescence intensity (a.u.)
5,TGGCTTTGTTGAGTGTAGGTAAGGATGAACTTGATTGCGACGGAGTCACCTAGTGCAG,8440 fluorescence intensity (a.u.)
6,TATCCCTCTGTTGGTAGTTATTTTTATTGTTGCACTTATCCGGAGTCACCTAGTGCAG,8570 fluorescence intensity (a.u.)
7,CTAATACTTAATTAATCATGCGTTAATTCATTGTTCTGTTCGGAGTCACCTAGTGCAG,8830 fluorescence intensity (a.u.)
8,TGGAGTTGATTTGAGGTTTTTTTATCGAAATTTATTTTTTCGGAGTCACCTAGTGCAG,10500 fluorescence intensity (a.u.)
9,TAATATTTGGTCCCACCTGTCATACACACGTTATGTCTTGCGGAGTCACCTAGTGCAG,8050 fluorescence intensity (a.u.)
10,ACAATCCGGTTGTTGTGGTCTATCGCTTACCAACTCCAAACGGAGTCACCTAGTGCAG,8720 fluorescence intensity (a.u.)
11,TTCGTCATCTCGCTGCAGCGGAGCCGCTCCGCGTCGCCGTCGGAGTCACCTAGTGCAG,8730 fluorescence intensity (a.u.)
12,TTGTGGTCCTGTCGTCATCCTGTGGAGTTGTGGTGAGTGTCGGAGTCACCTAGTGCAG,9740 fluorescence intensity (a.u.)
13,TCTGTAGTATTTTTTTACCCTGTTTTTAGCTGCATTCTGCCGGAGTCACCTAGTGCAG,9110 fluorescence intensity (a.u.)
14,TTGTAACCACTCATCCATCCTACTCCTTCTAACCAAACAACGGAGTCACCTAGTGCAG,8600 fluorescence intensity (a.u.)
15,CCTCTTCGAACTTTGTGCTTGACTGTATTAGTGGAAGAGTCGGAGTCACCTAGTGCAG,8360 fluorescence intensity (a.u.)
16,ATGCATATACGACGTTCGAGTTCCTTGTTCCTTGTAAACACGGAGTCACCTAGTGCAG,8710 fluorescence intensity (a.u.)
17,TTAGTTTATCCACTATCATCACCCTATCCACTTCACTTTTCGGAGTCACCTAGTGCAG,11100 fluorescence intensity (a.u.)
18,ACATGTATTTTTTTCCCTAACTCTTCTGCAATACTTTACTCGGAGTCACCTAGTGCAG,8350 fluorescence intensity (a.u.)
19,CATTGGATCATACATCAAGATTTACATTCCTTTATACCTACGGAGTCACCTAGTGCAG,13900 fluorescence intensity (a.u.)
20,CATGCATCATTATACTAGTCGTCGTCATATAAATAGCGGACGGAGTCACCTAGTGCAG,8380 fluorescence intensity (a.u.)
21,ATTGGTTGCTGCTCTCTCTTCTTGGCGTTTGTTTCCTATGCGGAGTCACCTAGTGCAG,12400 fluorescence intensity (a.u.)

# A second format for some results above:
row	Sequence	binding signal
11	TTCGTCATCTCGCTGCAGCGGAGCCGCTCCGCGTCGCCGTCGGAGTCACCTAGTGCAG	8730 fluorescence intensity (a.u.)
12	TTGTGGTCCTGTCGTCATCCTGTGGAGTTGTGGTGAGTGTCGGAGTCACCTAGTGCAG	9740 fluorescence intensity (a.u.)
13	TCTGTAGTATTTTTTTACCCTGTTTTTAGCTGCATTCTGCCGGAGTCACCTAGTGCAG	9110 fluorescence intensity (a.u.)

# (list continues)

row,Sequence,binding signal
1,GGTGGTGTGACATGACATTGTTTTTCAGGTGAGAGCTTGACGGAGTCACCTAGTGCAG,11700 fluorescence intensity (a.u.)
2,ATGGTTTTTTTTCCCTAGCTAAAAGTTATTTTTGGTTGCTCGGAGTCACCTAGTGCAG,8990 fluorescence intensity (a.u.)
3,CTACGCAGCCGTCGCCGTGCCTTCCTCGTCCTCTACCGGCCGGAGTCACCTAGTGCAG,8140 fluorescence intensity (a.u.)
4,CTCGTTGGGACTATGGACCTGTTCACTTTATAGCTATTTTCGGAGTCACCTAGTGCAG,8450 fluorescence intensity (a.u.)
5,TTTTGGGTTGATATGTTGCTGAATTCTGATTTTTTTATTACGGAGTCACCTAGTGCAG,8930 fluorescence intensity (a.u.)
6,GTCCACTGCAGTGACCAATGTTCATTTACTAGTTATTGGGCGGAGTCACCTAGTGCAG,8850 fluorescence intensity (a.u.)
7,TCTGTTATTCTACTTGTGCTTCTTCGGTTTTTATAAATTGCGGAGTCACCTAGTGCAG,8100 fluorescence intensity (a.u.)
8,TAAGAATGAAGTCATCAAAGTTACATCTTATTGACTTTTTCGGAGTCACCTAGTGCAG,8680 fluorescence intensity (a.u.)
9,GCTCCTTTAATTTGAACCAACCTTTCCGCTATAAAATCACCGGAGTCACCTAGTGCAG,9520 fluorescence intensity (a.u.)
10,CCCCACATCCGTTGCGCCTTGCATCTACTCTGTGCCAATCCGGAGTCACCTAGTGCAG,13200 fluorescence intensity (a.u.)
11,AGTGACATTTTCCTTGTGTTTTCCCCAGAAATGTGTTTCCCGGAGTCACCTAGTGCAG,8720 fluorescence intensity (a.u.)
12,ACAGCCCAGCCTACAGCTTCAAATTACGGAATTTCAGTATCGGAGTCACCTAGTGCAG,8910 fluorescence intensity (a.u.)
13,GAACGCCCATTTCCCCAACGCCTCGCGCCACCCGCGCCGACGGAGTCACCTAGTGCAG,9440 fluorescence intensity (a.u.)
14,GGCCCCTTACTGACATGTAATAACACTATTCCTTTTGACCCGGAGTCACCTAGTGCAG,8660 fluorescence intensity (a.u.)
15,CCGCTTCCACCCACTCCAACCGGCCCATCCAGCCCACGGCCGGAGTCACCTAGTGCAG,9100 fluorescence intensity (a.u.)
16,TCCATTTGTCTGTTTGTGTTGGCGTTGGGTTAAAAGCTGACGGAGTCACCTAGTGCAG,11100 fluorescence intensity (a.u.)
17,CTAGCTAGTTTGTTTTCGTCTCAATCCATCTGTTCGGCAGCGGAGTCACCTAGTGCAG,8170 fluorescence intensity (a.u.)
18,TATGTCTTTCTCTTTCAATCTCTTCATGTGTGCCATGTTCCGGAGTCACCTAGTGCAG,9020 fluorescence intensity (a.u.)
19,CGATTAGAGATCGGTTCATGTGTTGCATGCTGTATTTCTTCGGAGTCACCTAGTGCAG,9970 fluorescence intensity (a.u.)
20,CTTTTCCCTTTTCTTTTTAATTAAAACCTACTGTTTTTCCCGGAGTCACCTAGTGCAG,9680 fluorescence intensity (a.u.)
21,CTCACTGCCACTGCATCTTCTTCTTCAGTTCTTCTTCTTCCGGAGTCACCTAGTGCAG,12900 fluorescence intensity (a.u.)

row,Sequence,binding signal
1,ATCTTTGACGTCGTTGACTTTTAAAAAAATGTTTGACCGTCGGAGTCACCTAGTGCAG,22300 fluorescence intensity (a.u.)
2,CTGTTTTGTGGTGTTGCACACATTCTACCATTTGAACTGTCGGAGTCACCTAGTGCAG,9380 fluorescence intensity (a.u.)
3,TTTCATCCATTTTTCCGCTCTCTCTCTCTCCGAATGCGCGCGGAGTCACCTAGTGCAG,9050 fluorescence intensity (a.u.)
4,GTAATTCATATCCATTCATCGTACGACCTCTGTAATAATTCGGAGTCACCTAGTGCAG,11500 fluorescence intensity (a.u.)
5,GCTCGAATTGCCACGTAAGCGCCACGTCAATGCCACGTCACGGAGTCACCTAGTGCAG,8620 fluorescence intensity (a.u.)
6,AATCGATCCCACATTATCATCTTGCGGTACATGTATATTTCGGAGTCACCTAGTGCAG,12000 fluorescence intensity (a.u.)
7,ATTACTTGGTTGGTATTTGATGCGTCTAACCTGTTATTAACGGAGTCACCTAGTGCAG,8300 fluorescence intensity (a.u.)
8,AAGTTTTCGTGCTTAATTTTAATCGCCGTCTTATTTAAAACGGAGTCACCTAGTGCAG,8100 fluorescence intensity (a.u.)
9,AGGGCCTAAATCTCGTGGAATCTCATGCTTCAATATCGCGCGGAGTCACCTAGTGCAG,8460 fluorescence intensity (a.u.)
10,TCACCTCACCCTCTCGCGGTTTGAGTTTTCCACTTCCACGCGGAGTCACCTAGTGCAG,9650 fluorescence intensity (a.u.)
11,GTTTGATCCATTACAGCTCCACATATATTGTGAAATCATTCGGAGTCACCTAGTGCAG,10500 fluorescence intensity (a.u.)
12,TTAATGTTATGTAGGTCAGTAGGTGTGTATTTTTGCGTAACGGAGTCACCTAGTGCAG,9160 fluorescence intensity (a.u.)
13,CACCACCACCACCAACACTGCAACACAACACACCACCATGCGGAGTCACCTAGTGCAG,8330 fluorescence intensity (a.u.)
14,CCACTTCATTTACCGACTACCGGTCACACTGTCACAGTTCCGGAGTCACCTAGTGCAG,9090 fluorescence intensity (a.u.)
15,TATATATATATATATATATATATATATATGTGTGTGTGTGCGGAGTCACCTAGTGCAG,13700 fluorescence intensity (a.u.)
16,GCATTCACCTTGCTTGACTGTAATTGAGTCATTGCTGTACCGGAGTCACCTAGTGCAG,12600 fluorescence intensity (a.u.)
17,TTTGTGTGTTTAGTTTCTTACGTTTATAATTTTCTGAGTTCGGAGTCACCTAGTGCAG,9390 fluorescence intensity (a.u.)
18,ACTTTGCACTGAACTAAACACAGCCGTATTTCTACTAGTCCGGAGTCACCTAGTGCAG,9350 fluorescence intensity (a.u.)
19,AACGCGCTTACCGGCACTCTTCCATTGGATCTACTCTGCACGGAGTCACCTAGTGCAG,9010 fluorescence intensity (a.u.)
20,CTCACAGGTCAACACACCACCAGATTATATAACTCTTCGACGGAGTCACCTAGTGCAG,9300 fluorescence intensity (a.u.)
21,TCTCTCTCCTTTTGTTGCTTCCATTTCTCGTTCTTGCACGCGGAGTCACCTAGTGCAG,10500 fluorescence intensity (a.u.)

# Random excerpt: 2 records from the list
row,Sequence,binding signal
2,CTGTTTTGTGGTGTTGCACACATTCTACCATTTGAACTGTCGGAGTCACCTAGTGCAG,9380 fluorescence intensity (a.u.)
17,TTTGTGTGTTTAGTTTCTTACGTTTATAATTTTCTGAGTTCGGAGTCACCTAGTGCAG,9390 fluorescence intensity (a.u.)

# Reformatted as tab-separated lines: entries from further up.
row	Sequence	binding signal
7	ATTACTTGGTTGGTATTTGATGCGTCTAACCTGTTATTAACGGAGTCACCTAGTGCAG	8300 fluorescence intensity (a.u.)
8	AAGTTTTCGTGCTTAATTTTAATCGCCGTCTTATTTAAAACGGAGTCACCTAGTGCAG	8100 fluorescence intensity (a.u.)
